# Experiment: general procedure: Fmoc solid-phase peptide synthesis; Rink amide resin; HATU/DIEA
# Details: whole synthesis, based on the resin loading, side-chain lactam ring, sequence written open
row,Substance,isolated yield [%]
1,Gln-Ser-Gln-Gln-Thr-Phe-Asp(salicylaldehyde ester)-Asn-Leu-His-Arg-Leu-Leu-Lys(Ser)-Ala-Ala-Ala-Lys(Ser)-Gln-Asn,40
2,Asp(salicylaldehyde ester)Ala-Ala-Ala-Lys(Ser),42
3,Ala-Arg-Arg-Asp(salicylaldehyde ester)-Glu-Tyr-Leu-Lys(5-OH)-Ala-Ile-Gln,35
4,Asp(salicylaldehyde ester)Ala-Ala-Ala-Lys(5-OR),30
5,Glu-Asn-Pro-Glu-Asp(salicylaldehyde ester)-Ile-Leu-Asp-Lys(Ser)-His-Val-Gln-Arg-Val-Leu,45

# — US10011631B2 (The University of Hong Kong, priority 2015, dated 2018)
